# According to the supplement of paper PMC8728848:
# This is one part of the list.
# B1: PEB3 (Campylobacter jejuni), Q0PBL7 (protein)
# chain: MKKIITLFGACALAFSMANADVNLYGPGGPHTALKDIANKYSEKTGVKVNVNFGPQATWFEKAKKDADILFGASDQSALAIASDFGKDFNVSKIKPLYFREAIILTQKGNPLKIKGLKDLANKKVRIVVPEGAGKSNTSGTGVWEDMIGRTQDIKTIQNFRNNIVAFVPNSGSARKLFAQDQADAWITWIDWSKSNPDIGTAVAIEKDLVVYRTFNVIAKEGASKETQDFIAYLSSKEAKEIFKKYGWRE
# Key:
# Test in all cases: glycan array binding signal (z-score within array); higher = stronger binding
# Conditions in all cases: glycan notation: IUPAC condensed, linker removed
# [1] = biological target: Man(a1-2)Man(a1-6)[Man(a1-3)]Man(a1-6)[Man(a1-2)Man(a1-2)Man(a1-3)]Man(b1-4)GlcNAc(b1-4)GlcNAc
# Summary of the method: (§1)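 Negative Z-scores can be read as non-binding. The Z-score is calculated within each array and then averaged across arrays of one protein sequence at different concentrations or buffers and across linkers. Arrays, 3228 in all, were curated from the Consortium for Functional Glycomics database and kept only where the protein sequence was available.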
# Man(a1-3)[Man(a1-6)]Man = biological target: Man(a1-3)[Man(a1-6)]Man
# Summary of the method: as §1
# [2] = biological target: Man(a1-3)[Man(a1-6)]Man(a1-6)[Man(a1-2)Man(a1-3)]Man(b1-4)GlcNAc(b1-4)GlcNAc
# Summary of the method: as §1
# [3] = biological target: Man(a1-3)[Man(a1-6)]Man(a1-6)[Man(a1-3)]Man
# Summary of the method: as §1
# [4] = biological target: Man(a1-3)[Man(a1-6)]Man(a1-6)[Man(a1-3)]Man(b1-4)GlcNAc(b1-4)GlcNAc
# Summary of the method: as §1
# [5] = biological target: Man(a1-3)[Man(a1-6)]Man(b1-4)GlcNAc(b1-4)GlcNAc
# Summary of the method: as §1
# Man(a1-6)Man = biological target: Man(a1-6)Man
# Summary of the method: as §1
# Man(b1-4)GlcNAc = biological target: Man(b1-4)GlcNAc
# Summary of the method: as §1
# Neu5Ac(a2-3)Gal = biological target: Neu5Ac(a2-3)Gal
# Summary of the method: as §1
# [6] = biological target: Neu5Ac(a2-3)Gal(b1-3)GalNAc
# Summary of the method: as §1
# [7] = biological target: Neu5Ac(a2-3)Gal(b1-3)GalNAc(b1-3)Gal(a1-4)Gal(b1-4)Glc
# Summary of the method: as §1
# [8] = biological target: Neu5Ac(a2-3)Gal(b1-3)GalNAc(b1-4)[Neu5Ac(a2-3)]Gal(b1-4)Glc
# Summary of the method: as §1
# [9] = biological target: Neu5Ac(a2-3)Gal(b1-3)GalNAc6S
# Summary of the method: as §1
# [10] = biological target: Neu5Ac(a2-3)Gal(b1-3)GlcNAc
# Summary of the method: as §1
# [11] = biological target: Neu5Ac(a2-3)Gal(b1-3)GlcNAc(b1-2)Man(a1-3)[Neu5Ac(a2-3)Gal(b1-3)GlcNAc(b1-2)Man(a1-6)]Man(b1-4)GlcNAc(b1-4)GlcNAc
# Summary of the method: as §1
# [12] = biological target: Neu5Ac(a2-3)Gal(b1-3)GlcNAc(b1-3)Gal(b1-3)GlcNAc
# Summary of the method: as §1
# [13] = biological target: Neu5Ac(a2-3)Gal(b1-3)GlcNAc(b1-3)Gal(b1-4)GlcNAc
# Summary of the method: as §1
# [14] = biological target: Neu5Ac(a2-3)Gal(b1-3)GlcNAc(b1-3)GalNAc
# Summary of the method: as §1
# [15] = biological target: Neu5Ac(a2-3)Gal(b1-3)GlcNAc6S
# Summary of the method: as §1
# [16] = biological target: Neu5Ac(a2-3)Gal(b1-3)[Fuc(a1-4)]GlcNAc
# Summary of the method: as §1
# [17] = biological target: Neu5Ac(a2-3)Gal(b1-3)[Fuc(a1-4)]GlcNAc(b1-3)Gal(b1-3)[Fuc(a1-4)]GlcNAc
# Summary of the method: as §1
# [18] = biological target: Neu5Ac(a2-3)Gal(b1-3)[Fuc(a1-4)]GlcNAc(b1-3)Gal(b1-4)[Fuc(a1-3)]GlcNAc
# Summary of the method: as §1
# [19] = biological target: Neu5Ac(a2-3)Gal(b1-3)[Neu5Ac(a2-3)Gal(b1-4)]GlcNAc
# Summary of the method: as §1
# [20] = biological target: Neu5Ac(a2-3)Gal(b1-3)[Neu5Ac(a2-6)]GalNAc
# Summary of the method: as §1
# Neu5Ac(a2-3)Gal(b1-4)Glc = biological target: Neu5Ac(a2-3)Gal(b1-4)Glc
# Summary of the method: as §1
# [21] = biological target: Neu5Ac(a2-3)Gal(b1-4)GlcNAc
# Summary of the method: as §1
# [22] = biological target: Neu5Ac(a2-3)Gal(b1-4)GlcNAc(b1-2)Man(a1-3)[GlcNAc(b1-2)Man(b1-4)GlcNAc(b1-2)Man(a1-6)]Man(b1-4)GlcNAc(b1-4)GlcNAc
# Summary of the method: as §1
# [23] = biological target: Neu5Ac(a2-3)Gal(b1-4)GlcNAc(b1-2)Man(a1-3)[Neu5Ac(a2-6)Gal(b1-4)GlcNAc(b1-2)Man(a1-6)]Man(b1-4)GlcNAc(b1-4)GlcNAc
# Summary of the method: as §1
# [24] = biological target: Neu5Ac(a2-3)Gal(b1-4)GlcNAc(b1-3)Gal(b1-3)GlcNAc
# Summary of the method: as §1
# [25] = biological target: Neu5Ac(a2-3)Gal(b1-4)GlcNAc(b1-3)Gal(b1-4)GlcNAc
# Summary of the method: as §1
# [26] = biological target: Neu5Ac(a2-3)Gal(b1-4)GlcNAc(b1-3)Gal(b1-4)GlcNAc(b1-3)Gal(b1-4)GlcNAc
# Summary of the method: as §1
# [27] = biological target: Neu5Ac(a2-3)Gal(b1-4)GlcNAc(b1-3)Gal(b1-4)[Fuc(a1-3)]GlcNAc
# Summary of the method: as §1
# [28] = biological target: Neu5Ac(a2-3)Gal(b1-4)GlcNAc(b1-3)GalNAc
# Summary of the method: as §1
# [29] = biological target: Neu5Ac(a2-3)Gal(b1-4)GlcNAc(b1-6)[Gal(b1-3)]GalNAc
# Summary of the method: as §1
# [30] = biological target: Neu5Ac(a2-3)Gal(b1-4)GlcNAc(b1-6)[Neu5Ac(a2-3)Gal(b1-3)]GalNAc
# Summary of the method: as §1
# [31] = biological target: Neu5Ac(a2-3)Gal(b1-4)GlcNAc6S
# Summary of the method: as §1
# [32] = biological target: Neu5Ac(a2-3)Gal(b1-4)[Fuc(a1-3)]GlcNAc
# Summary of the method: as §1
binder,measurement,setting,value
B1,glycan array binding signal (z-score),[1],0.371
same,glycan array binding signal (z-score),Man(a1-3)[Man(a1-6)]Man,-0.633
same,glycan array binding signal (z-score),[2],-0.739
same,glycan array binding signal (z-score),[3],-1.11
same,glycan array binding signal (z-score),[4],1.57
same,glycan array binding signal (z-score),[5],-0.607
same,glycan array binding signal (z-score),Man(a1-6)Man,0.414
same,glycan array binding signal (z-score),Man(b1-4)GlcNAc,0.127
same,glycan array binding signal (z-score),Neu5Ac(a2-3)Gal,-0.668
same,glycan array binding signal (z-score),[6],-1.07
same,glycan array binding signal (z-score),[7],-0.352
same,glycan array binding signal (z-score),[8],-0.541
same,glycan array binding signal (z-score),[9],-1.19
same,glycan array binding signal (z-score),[10],-0.289
same,glycan array binding signal (z-score),[11],-1.37
same,glycan array binding signal (z-score),[12],-0.681
same,glycan array binding signal (z-score),[13],-0.117
same,glycan array binding signal (z-score),[14],-0.701
same,glycan array binding signal (z-score),[15],-1.44
same,glycan array binding signal (z-score),[16],0.777
same,glycan array binding signal (z-score),[17],0.108
same,glycan array binding signal (z-score),[18],0.794
same,glycan array binding signal (z-score),[19],-0.899
same,glycan array binding signal (z-score),[20],0.075
same,glycan array binding signal (z-score),Neu5Ac(a2-3)Gal(b1-4)Glc,-0.913
same,glycan array binding signal (z-score),[21],-0.614
same,glycan array binding signal (z-score),[22],0.752
same,glycan array binding signal (z-score),[23],-0.36
same,glycan array binding signal (z-score),[24],-1.02
same,glycan array binding signal (z-score),[25],0.445
same,glycan array binding signal (z-score),[26],-1.17
same,glycan array binding signal (z-score),[27],0.473
same,glycan array binding signal (z-score),[28],-0.101
same,glycan array binding signal (z-score),[29],-0.744
same,glycan array binding signal (z-score),[30],-1.04
same,glycan array binding signal (z-score),[31],0.164
same,glycan array binding signal (z-score),[32],-0.771

# Two records picked at random from those above, as already listed:
binder,measurement,setting,value
B1,glycan array binding signal (z-score),Neu5Ac(a2-3)Gal,-0.668
same,glycan array binding signal (z-score),Man(a1-3)[Man(a1-6)]Man,-0.633
